# Measured values reported in PubChem BioAssay AID1259415 (National Center for Advancing Translational Sciences (NCATS), 2018).
# The whole screen tested about 410,000 compounds, of which about 18,000 (4.4%) were called active. The inconclusive results got no clear call from the source; some entries with a clear call stand among them for comparison. No stated cut-off is given here; in the data, active means activity change below about -60%; inconclusive means no clear call, values can overlap the other calls; inactive means above about -39%.
# Test: qHTS Assay for inhibitors of the human cytomegalovirus (HCMV)
# Details: HFF cells, HCMV-luciferase reporter, 72 h; at 57.5 µM; active compounds read low
# How it was run: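 Two compound doses tested in HFFs infected with HCMV-luciferase, MOI 1 PFU/cell, 72 h at 37C. Lysate luminescence read with OneGlo; data normalized against buffer-only and 10uM Salinomycin inhibitor controls.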
# On the % scale 0 is the no-effect control and ±100 the full control effect.
row,SMILES,"activity change, negative = inhibition"
1,ClCc1c2ccccc2cc2ccccc12,inconclusive: -46.6%
2,O=C(NCc1ccco1)C1CCCN(S(=O)(=O)c2ccc(Br)cc2)C1 (stereo not given),inconclusive: -40.3%
3,C[n+]1c(-c2ccccc2)cc(-c2ccc(Cl)cc2)cc1-c1ccccc1,inconclusive: -54%
4,O=C(c1cccc(C(=O)N2CCN(c3ccccc3)CC2)c1)N1CCN(c2ccccc2)CC1,inconclusive: -56.7%
5,COc1ccccc1OCC(=O)Nc1ccc(S(=O)(=O)N2CCCC2)cc1,inactive: 26.4%
6,Cn1cccc1-c1cc(C(=O)N/N=C/C=C/c2ccccc2)[nH]n1,inactive: -15%
7,Cc1cc(C)c(NC(=O)C2CCC(=O)N2)c(C)c1 (stereo not given),inconclusive: -51.4%
8,COc1ccccc1CNC(=O)C1CCN(c2nnc(C)c3c(C)n(-c4ccccc4)nc23)CC1,inconclusive: -58.9%
9,CCC(C)NC1(c2ccccc2)CCCCC1 (stereo not given),inconclusive: -55.4%
10,CSc1nn(CC(=O)Nc2cc(C)ccc2C)c(N)c1S(=O)(=O)c1ccccc1,inconclusive: -46.9%
11,Cc1ccn2c(C(=O)CSc3ccccc3)c(C)nc2c1,inconclusive: -55%
12,COc1ccc(NC(=O)CC(C)S(=O)(=O)c2cc3c(cc2C)NC(=O)CO3)cc1OC (stereo not given),inactive: -5.21%
13,CCOc1ccc(Nc2nnc(Cc3ccc(OC)cc3)c(=O)[nH]2)cc1,inconclusive: -44.6%
14,O=C(Nn1c(C2CCCCC2)nc2ccccc2c1=O)c1ccc([N+](=O)[O-])cc1Cl,inconclusive: -49.8%
15,Cc1ccc(OCC(=O)NCCC2=CCCCC2)cc1,inactive: -23.8%
16,Cc1c(C(=O)N2CCCCC2C)sc2ncnc(N3CCc4ccccc4C3)c12 (stereo not given),inconclusive: -57.3%
17,COc1cccc(-n2nc(C#N)c(Cl)cc2=O)c1,active: -96.3%
18,COC(=O)[C@@]12C[C@@H](CC(=O)NCc3ccc(OC)c(OC)c3)C(=O)N(Cc3ccco3)C1=CCC(C)(C)C2,inconclusive: -55.4%
19,O=C(NCc1cccs1)C1Cc2c(-c3ccc(Cl)cc3)ccnc2O1 (stereo not given),inconclusive: -41.6%
20,CCOc1ccc2c(c1)-c1c(ssc1=S)C(C)(C)N2C(=O)CSC1=NCCS1,inconclusive: -54.4%
21,COc1cc(-c2nnc(SCCOc3ccc(Cl)cc3C)o2)cc(OC)c1OC,inactive: 20.1%
22,Cc1nn(C)cc1S(=O)(=O)N1CCN(c2cccc(Cl)c2)CC1,inactive: -8.67%
23,COC(=O)c1cc(S(=O)(=O)NCC2CCN(Cc3ccc(F)cc3)CC2)cn1C,inconclusive: -54%
24,Cc1ccc(OCCn2c(Br)nc3c2c(=O)n(C)c(=O)n3C)cc1,inconclusive: -53.5%
25,Nc1ccccc1C(=O)/C=C/c1ccc2c(c1)OCO2,active: -71%
26,CCOc1ccccc1/C=N/NC(=O)c1nnn(-c2nonc2N)c1CN1CCCCCC1,inactive: -23.1%
27,Cc1cc(C)cc(NC(=S)NC2CC3CCCC(C2)N3Cc2cccs2)c1 (stereo not given),inconclusive: -40.3%
28,COc1ccc(NCC(O)COc2ccc(C(C)(C)C)cc2)cc1 (stereo not given),inconclusive: -43.8%

# Part of the list above in order of count of non-hydrogen atoms, smallest number first.
row,SMILES,"activity change, negative = inhibition"
1,ClCc1c2ccccc2cc2ccccc12,inconclusive: -46.6%
10,CSc1nn(CC(=O)Nc2cc(C)ccc2C)c(N)c1S(=O)(=O)c1ccccc1,inconclusive: -46.9%
12,COc1ccc(NC(=O)CC(C)S(=O)(=O)c2cc3c(cc2C)NC(=O)CO3)cc1OC (stereo not given),inactive: -5.21%

# Remaining list, next part:

row,SMILES,"activity change, negative = inhibition"
1,CC(=O)NC1=C(Nc2ccc(N(C)C)cc2)C(=O)c2ccccc2C1=O,active: -87.9%
2,Cn1c(C(=O)O)c(CC(=O)Nc2ccc3c(c2)OCCO3)c2ccccc21,inconclusive: -57.2%
3,COc1ccc(N2CCN(C(=O)c3cccc(N4C(=O)C5CC=CC(C)C5C4=O)c3)CC2)cc1 (stereo not given),inactive: -11.5%
4,CC(=O)Nc1ccc(S(=O)(=O)c2cc(O)ccc2O)cc1,inactive: -5.59%
5,CCCNC(=O)N1[C@H]2CC[C@@H]1C(C(=O)OC)=C(c1ccc(OC)c(OC)c1)C2,inactive: 13.4%
6,C=CCc1ccc(OCCCCNC(C)CC)c(OC)c1 (stereo not given),inactive: -21.2%
7,Clc1ccc(CSCCc2ccncc2)cc1,inconclusive: -52.9%
8,O=C1c2cccc3c(N4CCCCC4)ccc(c23)C(=O)N1c1ccc(O)cc1,active: -61.7%
9,O=C(Nc1ccc(Cl)cc1)c1nc[nH]c1C(=O)N1CCc2ccccc2C1,inactive: -12.5%
10,Cc1ccc(-c2csc3nc4cc(C(=O)NC5CCC(O)CC5)ccc4c(=O)n23)cc1 (stereo not given),inactive: -17.2%
11,CCCCNC(=O)c1cccc2c(=O)c(C)c(-c3ccccc3)oc12,active: -67.8%
12,COc1ccc(N(CC(=O)Nc2ccc(C)cn2)S(=O)(=O)c2c(C)nn(C)c2C)cc1,inconclusive: -41.8%
13,O=C(CN1C(=O)S/C(=C/c2ccncc2)C1=O)Nc1ccccc1,inactive: -30.5%
14,CCS(=O)(=O)NC(=O)C1(C)CCN1C(=O)C1(c2ccc(Cl)cc2)CC1 (stereo not given),inactive: 4.91%
15,CN(C(=O)CC(NC(=O)c1ccccc1)(c1ccccc1)c1ccccc1)c1ccccc1,active: -66.2%
16,Cc1ccc(C)c(CSc2nc3ncccc3[nH]2)c1,inconclusive: -40.4%
17,CCNc1nc(NC(C)CC)nc(ON=C(C)C)n1 (stereo not given),inconclusive: -50.9%
18,COc1ccc(S(=O)(=O)N2CCC(Cc3ccccc3)CC2)cc1NC(C)=O,inactive: 44.5%
19,Cc1ccc(-c2n[nH]c(=S)c3ccccc23)cc1S(=O)(=O)NCC1CCCO1 (stereo not given),active: -62.9%
20,CCCNS(=O)(=O)c1ccc(CCC(=O)Nc2cc(Cl)ccc2Oc2ccccc2)cc1,inactive: -2.36%
21,Cc1cc2cc(CCNC(=O)C(=O)c3c[nH]c4ccccc34)c(=O)[nH]c2cc1C,inactive: -14.2%
22,O=C(NCCN1CCN(C(=O)Nc2ccccc2)CC1)Nc1ccccc1,inconclusive: -54.9%
23,Fc1ccc(-n2nnnc2-c2ccccc2Cl)cc1,active: -66.7%
24,CO[C@@H]1CN(C)C(=O)c2cc(NS(=O)(=O)c3ccc(C)cc3)ccc2OC[C@H](C)N(Cc2nccs2)C[C@H]1C,inactive: 7.51%
25,CC1CCCC(NC(=O)C2CCCN2S(=O)(=O)c2cccc3nsnc23)C1C (stereo not given),inconclusive: -51.6%
26,Cc1cc(C(=O)CSc2nc(N)cc(=O)[nH]2)c(C)n1CCc1ccc(Cl)cc1,inconclusive: -56.2%
27,CCOc1ccc(-c2nc(CSCC(=O)N3CCN(c4cccc(C(F)(F)F)c4)CC3)c(C)o2)cc1,inconclusive: 0%
